Values quoted from earlier work as cited in patent publication US20210369677A1, “SMALL MOLECULE ACTIVATORS OF POLYCYSTIN-2 (PKD2) AND USES THEREOF” (Northwestern University, priority 2020, published 2021).
At least one compound was matched to its structure with a doubt left.

Legend:
[1] = cited from earlier work
[2] = cited from earlier work; remark: listed apart in the source

For `O=C(O)CCP(CCC(=O)O)CCC(=O)O` [TCEP, tris-2-carboxyethyl phosphine], the E0 [1] is listed as −290 mV and the “octanol:water partition coefficients” value [2] is listed as −4.9.
